Results as given in PubChem BioAssay AID743255 (National Center for Advancing Translational Sciences (NCATS), 2014).
Hit rate of the full screen: of about 390,000 compounds, about 910 (0.23%) were called active. Inconclusive means that the source gave no clear call. Such entries were picked first, then a sample of the others. Calls come from the whole dose curve; as a rule, active = well fitted inhibition curve with a large enough effect; inconclusive = small, poorly fitted or top-dose-only effect; inactive = no such curve, though single readings can be large or run the other way. Potencies beside an inconclusive call are fits to weak or partial responses and may not hold up.

The chains behind the UniProt entries cited, without tags or fusion partners. Where a name states a change or a piece, a line headed by the entry shows the natural chain unless it says otherwise.
UniProt O94782: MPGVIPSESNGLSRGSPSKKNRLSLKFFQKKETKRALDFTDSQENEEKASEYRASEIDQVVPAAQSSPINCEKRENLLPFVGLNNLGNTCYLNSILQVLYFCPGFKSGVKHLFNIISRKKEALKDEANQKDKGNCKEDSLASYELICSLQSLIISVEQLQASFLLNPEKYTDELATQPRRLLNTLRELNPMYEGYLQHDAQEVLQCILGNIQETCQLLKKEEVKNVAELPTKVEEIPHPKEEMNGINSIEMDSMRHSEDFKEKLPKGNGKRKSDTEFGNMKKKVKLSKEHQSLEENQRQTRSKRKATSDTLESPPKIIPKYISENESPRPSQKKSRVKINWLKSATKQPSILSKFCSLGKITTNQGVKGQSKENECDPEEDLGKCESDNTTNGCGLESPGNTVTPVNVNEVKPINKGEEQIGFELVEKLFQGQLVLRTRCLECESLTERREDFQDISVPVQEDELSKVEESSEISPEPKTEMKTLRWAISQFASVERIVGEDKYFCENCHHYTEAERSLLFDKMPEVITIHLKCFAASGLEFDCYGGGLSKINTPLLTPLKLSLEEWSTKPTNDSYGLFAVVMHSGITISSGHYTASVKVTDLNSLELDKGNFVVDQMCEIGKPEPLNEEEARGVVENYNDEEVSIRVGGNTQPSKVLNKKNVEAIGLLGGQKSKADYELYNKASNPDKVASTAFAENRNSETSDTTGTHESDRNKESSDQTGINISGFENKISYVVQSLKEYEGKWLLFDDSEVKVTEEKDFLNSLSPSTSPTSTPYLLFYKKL

The molecules below were run against Ubiquitin carboxyl-terminal hydrolase 1 (Homo sapiens) (UniProt O94782) (assay: Inhibitors of USP1/UAF1: Primary Screen). Details: recombinant USP1/UAF1, Ub-Rhodamine cleavage fluorescence; activity change, negative = inhibition: at 57.1 µM (top of the series).
Method in brief: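 Step one: compound is pinned into 1nM USP1/UAF1 in HEPES pH 7.8 buffer with TCEP. Step two: 15 min room-temperature incubation. Step three: Ub-Rho (150nM final) starts cleavage, tracked by fluorescence over six one-minute reads.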
% is set by controls: 0 for no effect and ±100 for the full control effect; potency is the fitted concentration of half-maximal effect.
Note: nearly all actives have a fitted effect of over 60% in size.

Activity change, negative = inhibition, inactive:
CCCOc1ccc(/C(O)=C2/C(=O)C(=O)N(CCCn3ccnc3)C2c2ccc(C)o2)cc1 (centres undefined) -12.4%, CCOc1ccc2oc(C(=O)N(C)CCc3ccc(OC)c(OC)c3)c(C)c2c1 -12.9%, Cc1ccc(N=C(NO)c2cnccc2C(F)(F)F)c(C)c1 -16.5%, CCc1ccc(OC(C)C(=O)N2CCC(c3nc4ccccc4s3)CC2)cc1 (centres undefined) -21.5%, O=C(CN1c2ccccc2Sc2ccccc21)NNC(=O)Nc1ccc(Cl)cc1 -5.76%, Cn1c(=O)c2c(nc(N3CCCCCC3)n2CC(O)COc2ccccc2)n(C)c1=O (centres undefined) -19.3%, CCOc1ccc(Cl)cc1C1=CC(=O)C[C@H](c2ccc(OC)cc2)C1 -8.89%, COc1ccccc1CNC(=O)CCCc1nnc2n(CC(C)C)c(=O)c3sccc3n12 -7.41%, C=CCn1c(Oc2ccccc2)nc2c1c(=O)n(C)c(=O)n2C -18.6%

Potency, inconclusive:
CC(C)CCNC(=O)C1CC(c2cccc(F)c2)=NO1 (centres undefined) 70.8 µM [inhibitor, partial curve, poor fit], O=C(NCCc1csc(-c2ccc(Cl)cc2)n1)c1cccs1 44.7 µM [inhibitor, partial curve], O=C(COc1ccccc1)Nc1nnc(-c2ccccc2Cl)o1 35.5 µM [inhibitor, partial curve, poor fit], Cc1cc(C)cc(NC(=O)CCS(=O)(=O)c2cc3c4c(c2)CCN4C(=O)CC3)c1 0.0501 µM [inhibitor, full curve], Cn1c(/N=C/c2ccc3c(c2)OCO3)nc2ccccc21 35.5 µM [inhibitor, single point], COC(=O)c1cc2c(C)c(C)c3ccccn3c-2c1C(=O)OC 14.1 µM [inhibitor, partial curve], Cc1noc(C)c1NC(=O)Nc1ccc2c(c1)C(=O)N([C@H](C)CO)C[C@H](C)[C@@H](CN(C)S(=O)(=O)c1c(C)noc1C)O2 35.5 µM [inhibitor, single point], CCOC(=O)N1CCc2c(sc(NCc3cccc(F)c3)c2C(=O)Nc2ccccc2OCC)C1 1.12 µM [inhibitor, full curve, poor fit], CCCCCn1c(SCc2cccc(C)c2)nc2c1c(=O)[nH]c(=O)n2C 20 µM [inhibitor, partial curve, poor fit], Cc1ccc(N2CC(NC(=O)Cc3cccs3)CC2=O)cc1C (centres undefined) 56.2 µM [inhibitor, partial curve, poor fit], CCC(=O)C(C#N)(c1ccc(OC)c(OC)c1)C(C)C (centres undefined) 12.6 µM [inhibitor, partial curve, poor fit], O=C(Nc1ccc(Oc2ccccc2)cc1)C1CC1 0.398 µM [inhibitor, full curve, poor fit], O=C(NCc1ccc(F)cc1)c1cccc2c1C(=O)c1ccc(N3CCOCC3)cc1S2(=O)=O 31.6 µM [inhibitor, single point], O=C(O)c1cn2c3c(ccc(Cl)c3c1=O)OCC2 7.94 µM [inhibitor, single point], COc1cccc(/C=C2\SC(=S)N(CCC(=O)NC3C=CS(=O)(=O)C3)C2=O)c1 (centres undefined) 39.8 µM [inhibitor, partial curve, poor fit], N#CCC(=O)Nc1ccc(C(=O)OCC(=O)Nc2ccccc2-c2ccccc2)cc1 44.7 µM [inhibitor, partial curve, poor fit], CC(Oc1ccccc1)C(=O)N1CCC2(CC1)Oc1ccc(F)cc1C(=O)C21CC(c2cccnc2)=NO1 (centres undefined) 44.7 µM [inhibitor, partial curve, poor fit], CCCc1nc2c(nnn2Cc2ccccc2F)c(=O)[nH]1 0.447 µM [inhibitor, full curve, poor fit], CC(=NCc1ccccc1)c1ccc(O)cc1O 5.62 µM [inhibitor, partial curve], Cc1ccc(Nc2[nH]c(=O)c3ccccc3c2C(=O)c2ccccc2)cc1 28.2 µM [inhibitor, partial curve], CCOc1ccc(/C=C2\SC(=S)N(C(C(=O)O)c3ccccc3)C2=O)cc1OC (centres undefined) 39.8 µM [inhibitor, partial curve], COc1ccc(C(=O)N/N=C/c2sc3ccccc3c2O)cc1 25.1 µM [inhibitor, partial curve], COc1ccc(NS(=O)(=O)c2ccc(OC)c(N(C)S(=O)(=O)c3ccc(Cl)cc3)c2)cc1 22.4 µM [inhibitor, partial curve, poor fit], Cc1cccc(/C=C(\c2nc3ccccc3[nH]2)S(=O)(=O)c2ccccc2)c1 3.55 µM [inhibitor, single point], COC(=O)c1c(NC(=O)C2CC2)sc2c1CCN(C(C)=O)C2 50.1 µM [inhibitor, partial curve, poor fit], CSc1ccc(C2NC(=O)c3c(sc4c3CCN(C)C4)N2)cc1 (centres undefined) 39.8 µM [inhibitor, partial curve], O=C1N[C@H](Cc2ccccc2)COC(=O)[C@@H](Cc2ccc(F)cc2)CC/C=C/C[C@H]1CC(=O)N(CCO)Cc1ccccc1 7.08 µM [inhibitor, partial curve, poor fit], Cc1c(C(=O)N(Cc2ccccc2F)C2CCS(=O)(=O)C2)oc2ccc(F)cc12 (centres undefined) 28.2 µM [inhibitor, single point], CCc1cccc(NC(=O)C2CCN(C(=O)c3cnn(-c4ccccc4)c3-n3cccc3)CC2)c1 35.5 µM [inhibitor, partial curve, poor fit], CCCCNC(=O)C(C)N(CCN(C)C)C(=O)CCCN1C(=O)NC(c2ccc(Cl)cc2)C(C(=O)OCc2ccccc2)=C1C (centres undefined) 7.94 µM [inhibitor, partial curve]
